Test results: patent US20200338209A1, “ANTI-B7-H3 ANTIBODIES AND ANTIBODY DRUG CONJUGATES” (AbbVie Inc., priority 2016, published 2020)
Residue numbers refer to the chain shown, from its start. Results are given in words; binding and its absence hold for the method and conditions named. Some results given as binding are weak or reduced against the parent protein; the word gives no strength. Sequences can lack the tags named with a protein.

T1: Human B7-H3-ECD (His tag) (human) (UniProt Q5ZPR3)
T1 sequence: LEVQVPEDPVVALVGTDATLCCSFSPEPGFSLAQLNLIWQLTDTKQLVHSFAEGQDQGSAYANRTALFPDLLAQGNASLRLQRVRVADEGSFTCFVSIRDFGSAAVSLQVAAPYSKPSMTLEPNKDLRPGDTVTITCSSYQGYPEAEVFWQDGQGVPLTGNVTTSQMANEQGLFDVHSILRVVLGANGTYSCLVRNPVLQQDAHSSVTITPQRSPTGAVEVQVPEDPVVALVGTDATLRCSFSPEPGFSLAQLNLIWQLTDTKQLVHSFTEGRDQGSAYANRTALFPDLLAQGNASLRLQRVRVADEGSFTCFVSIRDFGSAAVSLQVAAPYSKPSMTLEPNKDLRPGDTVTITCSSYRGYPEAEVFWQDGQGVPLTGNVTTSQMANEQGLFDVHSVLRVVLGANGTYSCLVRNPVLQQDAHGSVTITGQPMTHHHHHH

B1: Ab7 (antibody, mouse IgG1, V domains shown)
VH: EVQLVESGENLVKPGGSLKLSCAASGFSFRGYGMSWVRQTPDKRLEWVAAISTGGNYTYYPDSVQGRFTISRDNANNTLYLQMSSLKSEDTAMYYCARRGGNYAGFAYWGQGTLVTVSA
VL: DIQMTQSPASLSVSVGETVTITCRPSENIYSNLAWYQQKQGKSPQLLVYAATNLADGVPSRFSGSGSGTQYSLKINSLQSEDFGTYYCQHFWGTPFTFGSGTKLEIK
B2: huAb18v1 (antibody, V domains shown)
VH: EVQLVQSGAEVKKPGSSVKVSCKASGYSFTSYTIHWVRQAPGQGLEWMGYINPNSRNTDYNQKFKDRVTITADKSTSTAYMELSSLRSEDTAVYYCARYSGSTPYWYFDVWGQGTTVTVSS
VL: DIQLTQSPSFLSASVGDRVTITCRASSSVSYMNWYQQKPGKAPKLLIYATSNLASGVPSRFSGSGSGTEFTLTISSLQPEDFATYYCQQWSSNPLTFGQGTKLEIK
B3: huAb18v2 (antibody, V domains shown)
VH: B2 VH with N61A, K65Q, D66G, I70L
VL: B2 VL
B4: huAb18v3 (antibody, V domains shown)
VH: B2 VH with M48I, V68T, I70L, K74R
VL: B2 VL with A42S, L45P, L46W, G63V, G65V, F70H
B5: huAb18v4 (antibody, V domains shown)
VH: B2 VH with N61A, K65Q, D66G, I70L
VL: B2 VL with A42S, L45P, L46W, G63V, G65V, F70H
B6: huAb18v5 (antibody, V domains shown)
VH: B2 VH
VL: EIVLTQSPDFQSVTPKEKVTITCRASSSVSYMNWYQQKPDQSPKLLIKATSNLASGVPSRFSGSGSGTDFTLTINSLEAEDAATYYCQQWSSNPLTFGQGTKLEIK
B7: huAb18v6 (antibody, V domains shown)
VH: B2 VH with N61A, K65Q, D66G, I70L
VL: B6 VL
B8: huAb18v7 (antibody, V domains shown)
VH: B2 VH with N61A, K65Q, D66G, I70L
VL: B6 VL with L45P, L46W, K48Y, G63V, G65V, F70H
B9: huAb18v8 (antibody, V domains shown)
VH: B2 VH with M48I, V68T, I70L, K74R
VL: B2 VL with L45P, L46W, G63V, F70H
B10: huAb18v9 (antibody, V domains shown)
VH: B2 VH with M48I, V68T, I70L, K74R
VL: B6 VL with L45P, L46W, K48Y, G63V, G65V, F70H
B11: huAb18v10 (antibody, V domains shown)
VH: B2 VH with N61A, K65Q, D66G, I70L
VL: B2 VL with L45P, L46W, G63V, F70H

The binders below were run against T1, Human B7-H3-ECD (His tag) (human) (assay: SPR, mAb captured).

binding, binds:
B1

Each binder was assayed against T1, Human B7-H3-ECD (His tag) (human) (assay: SPR (Biacore)).

binding, binds:
B2
B3
B4
B5
B6
B7
B8
B9
B10
B11
